# Assay results taken from article PMC9065177 (Theranostics, 2022).
# HELM strings list residues between dots; [ac] is acetyl, [am] amide, other brackets name non-standard units.
# Assay: general procedure: Fmoc solid-phase peptide synthesis; Rink Amide resin (loading 0.34 mmol/g); DIC/Oxyma pure
# Settings: whole synthesis, scale of the general procedure 735 mg resin
row,Substance,isolated yield
1,Cys-MMP-2-aPD-L1,21.88%
2,FITC-Cys-MMP-2-aPD-L1,12.15%
3,PEPTIDE1{[ac].I.N.L.K.A.L.A.A.L.A.K.K.I.L.[am]}$$$$V2.0,13.16%
4,"PEPTIDE1{[ac].I.N.L.K.A.L.A.A.L.[S5].K.K.I.[S5].[am]}$PEPTIDE1,PEPTIDE1,11:R3-15:R3$$$V2.0",13.37%
5,"PEPTIDE1{[ac].I.N.L.K.A.L.A.A.[S5].A.K.K.[S5].L.[am]}$PEPTIDE1,PEPTIDE1,10:R3-14:R3$$$V2.0",19.17%
6,"PEPTIDE1{[ac].I.N.L.K.A.L.A.[S5].L.A.K.[S5].I.L.[am]}$PEPTIDE1,PEPTIDE1,9:R3-13:R3$$$V2.0",17.82%
7,"PEPTIDE1{[ac].I.N.L.K.A.L.[S5].A.L.A.[S5].K.I.L.[am]}$PEPTIDE1,PEPTIDE1,8:R3-12:R3$$$V2.0",20.37%
8,"PEPTIDE1{[ac].I.N.L.K.A.[S5].A.A.L.[S5].K.K.I.L.[am]}$PEPTIDE1,PEPTIDE1,7:R3-11:R3$$$V2.0",32.03%
9,"PEPTIDE1{[ac].I.N.L.K.[S5].L.A.A.[S5].A.K.K.I.L.[am]}$PEPTIDE1,PEPTIDE1,6:R3-10:R3$$$V2.0",21.18%
10,"PEPTIDE1{[ac].I.N.L.[S5].A.L.A.[S5].L.A.K.K.I.L.[am]}$PEPTIDE1,PEPTIDE1,5:R3-9:R3$$$V2.0",2.55%
11,"PEPTIDE1{[ac].I.N.[S5].K.A.L.[S5].A.L.A.K.K.I.L.[am]}$PEPTIDE1,PEPTIDE1,4:R3-8:R3$$$V2.0",10.78%
12,"PEPTIDE1{[ac].I.[S5].L.K.A.[S5].A.A.L.A.K.K.I.L.[am]}$PEPTIDE1,PEPTIDE1,3:R3-7:R3$$$V2.0",14.00%
13,"PEPTIDE1{[ac].[S5].N.L.K.[S5].L.A.A.L.A.K.K.I.L.[am]}$PEPTIDE1,PEPTIDE1,2:R3-6:R3$$$V2.0",10.59%

# Same assay, conditions: whole synthesis, scale of the general procedure 735 mg resin, hydrocarbon staple, sequence written open
row,Substance,isolated yield
1,Cys-Ly s (N3)-MP9,20.69%
2,Cys-Ly s (N3)-MP9-MMP2-aPD-L1,5.18%
3,Cys-MP9-MMP-2-aPD-L1,11.08%
4,FITC-Cys-MP9,12.80%
5,FITC-Cys-MP9-MMP-2-aPD-L1,2.89%
